Results as given in PubChem BioAssay AID248 (DTP/NCI, 2004).
The list does not hold the whole screen: it is rich in T/C values a quarter to a half above the control, in often repeated tests (any T/C) and in doses without a T/C. Further doses and runs are listed elsewhere. T/C is the treated group as % of the vehicle group. Some entries give survivors of the animals treated and no T/C: the source holds a T/C of zero for them, seemingly a mark for toxic or unscored doses. Some doses without a T/C left all or most animals alive at the check, yet need not have been tolerated: survival well below the control is almost never listed, so the zero probably covers shortened survival too. Survivors were counted at the toxicity check, usually on the fifth day, unless a day is given; later deaths do not show. Schedule codes are those of the source, taken here to give the interval after Q, in days (D) or hours (H), and the number of doses after X. Some molecules as drawn cover several salts, stereoisomers or complexes of the source; a dose is that of the sample tested. For survival time, this PubChem deposit counts one and a half times the control or more as active, and values a quarter to a half above the control carry no call in these data; other NCI protocols may use other cut-offs. Some schedule codes hold Z or #, which are not explained here.

Tested on: L1210 leukemia ip in BDF1 mice, survival T/C
Assay: NCI In Vivo Anticancer Drug Screen. Data for tumor model L1210 Leukemia (intraperitoneal) in B6D2F1 (BDF1) mice
Settings: T/C endpoint: mean survival time, higher T/C = longer survival
[1] = dose: 100.0 mg/kg/injection, schedule: Q01DX009 (ip), vehicle: Klucel (hydroxypropylcellulose) (HPC)
[2] = dose: 400.0 mg/kg/injection, schedule: Q01DX001 (ip), vehicle: saline

In the case of `COC(=O)C(N)Cc1ccc(OC)c(N(CCCl)CCCl)c1` (configuration not stated), the T/C (dose: 0.7 mg/kg/injection, schedule: Q01DX009 (ip), vehicle: saline) is reported as 148 % of control, the survivor count (dose: 6.6 mg/kg/injection, schedule: Q01DX009 (ip), vehicle: saline) is reported as 6 of 6 and the T/C (dose: 10.0 mg/kg/injection, schedule: Q01DX001 (ip), vehicle: saline) is reported as 129 % of control. The survivor count (dose: 10.0 mg/kg/injection, schedule: Q01DX009 (ip), vehicle: saline) was 3 of 6, the survivor count (dose: 12.5 mg/kg/injection, schedule: Q01DX001 (ip), vehicle: carboxymethylcellulose (CMC)) was 2 of 6 and the survivor count (dose: 15.0 mg/kg/injection, schedule: Q01DX001 (ip), vehicle: saline) was 4 of 6. The survivor count (dose: 20.0 mg/kg/injection, schedule: Q01DX001 (ip), vehicle: saline) was 5 of 6, the survivor count (dose: 25.0 mg/kg/injection, schedule: Q01DX001 (ip), vehicle: carboxymethylcellulose (CMC)) was 0 of 6 and the survivor count (dose: 30.0 mg/kg/injection, schedule: Q01DX001 (ip), vehicle: saline) was 5 of 6. For the same compound, the survivor count (dose: 40.0 mg/kg/injection, schedule: Q01DX001 (ip), vehicle: saline) was 1 of 6, the survivor count (dose: 50.0 mg/kg/injection, schedule: Q01DX001 (ip), vehicle: carboxymethylcellulose (CMC)) was 0 of 6 and the survivor count (dose: 60.0 mg/kg/injection, schedule: Q01DX001 (ip), vehicle: saline) was 0 of 6. The survivor count (dose: 75.0 mg/kg/injection, schedule: Q01DX001 (sc), vehicle: saline) was 0 of 6, the survivor count (dose: 80.0 mg/kg/injection, schedule: Q01DX001 (ip), vehicle: saline) was 0 of 6 and the survivor count (dose: 100.0 mg/kg/injection, schedule: Q01DX001 (ip), vehicle: carboxymethylcellulose (CMC)) was 0 of 6. The survivor count (dose: 150.0 mg/kg/injection, schedule: Q01DX001 (sc), vehicle: saline) was 0 of 6, the survivor count (dose: 160.0 mg/kg/injection, schedule: Q01DX001 (ip), vehicle: saline) was 0 of 6 and the survivor count (dose: 200.0 mg/kg/injection, schedule: Q01DX001 (ip), vehicle: carboxymethylcellulose (CMC)) was 0 of 6. For the same compound, the survivor count (dose: 300.0 mg/kg/injection, schedule: Q01DX001 (sc), vehicle: saline) was 0 of 6 and the survivor count (dose: 400.0 mg/kg/injection, schedule: Q01DX001 (ip), vehicle: carboxymethylcellulose (CMC)) was 0 of 6.
For `FC(Cl)C(F)(F)Br` (configuration not stated), the survivor count (dose: 600.0 mg/kg/injection, schedule: Q01DX005 (ip), vehicle: saline) was 6 of 6, the survivor count (dose: 800.0 mg/kg/injection, schedule: Q01DX001 (ip), vehicle: acetone) was 3 of 6 and the survivor count (dose: 1200.0 mg/kg/injection, schedule: Q01DX001 (ip), vehicle: acetone) was 1 of 6. For the same compound, the survivor count (dose: 1600.0 mg/kg/injection, schedule: Q01DX001 (ip), vehicle: acetone) was 1 of 6.
For `COC(=N)c1nn(C2OC(CO)C(O)C2O)c2ncnc(N)c12` (configuration not stated), the T/C (dose: 100.0 mg/kg/injection, schedule: Q01DX005 (ip), vehicle: saline) was 136 % of control and the T/C (dose: 200.0 mg/kg/injection, schedule: Q01DX005 (ip), vehicle: saline) was 127 % of control.
For `COc1ccc(C=NCCN=Cc2ccc(OC)cc2)cc1`, the survivor count (dose: 200.0 mg/kg/injection, schedule: Q04DX003 (ip), vehicle: Klucel (hydroxypropylcellulose) (HPC)) was 6 of 6.
For `CCN(CC)C(=O)O/N=C(/C)c1ccccc1`, the survivor count (dose: 400.0 mg/kg/injection, schedule: Q01DX001 (ip), vehicle: other) was 2 of 4.
In the case of `CC(C)(CO)CO`, the survivor count (dose: 200.0 mg/kg/injection, schedule: Q04DX002 (ip), vehicle: saline) is reported as 0 of 3 and the survivor count (dose: 400.0 mg/kg/injection, schedule: Q04DX002 (ip), vehicle: saline) is reported as 0 of 3.
For `CCC1(OC(C)=O)C(=O)OCc2c1cc1n(c2=O)Cc2cc3ccccc3nc2-1` (configuration not stated), the T/C (dose: 0.6 mg/kg/injection, schedule: Q01DX Z (ip), vehicle: water) was 128 % of control.
For `Cc1cc2c(cc1C)[n+]([O-])c1c(=O)[nH]c(=O)nc-1n2CC(O)C(O)C(O)CO` (configuration not stated), the survivor count (dose: 400.0 mg/kg/injection, schedule: Q04DX002 (ip), vehicle: saline with Tween-80) was 2 of 3.
In the case of `CCCOc1ccc(C2=NCC(C)S2)c(C)c1` (configuration not stated), the survivor count [1] is reported as 3 of 3, the survivor count (dose: 200.0 mg/kg/injection, schedule: Q01DX009 (ip), vehicle: Klucel (hydroxypropylcellulose) (HPC)) is reported as 3 of 3 and the survivor count (dose: 400.0 mg/kg/injection, schedule: Q01DX005 (ip), vehicle: Klucel (hydroxypropylcellulose) (HPC)) is reported as 2 of 3.
For `Cc1ccc(CCN)cc1C`, the survivor count (dose: 200.0 mg/kg/injection, schedule: Q04DX003 (ip), vehicle: saline) was 1 of 6 and the survivor count (dose: 400.0 mg/kg/injection, schedule: Q04DX003 (ip), vehicle: saline) was 0 of 6.
For `O=C(/C=C\c1ccc([N+](=O)[O-])cc1)NCCCCNC(=O)/C=C/c1ccc([N+](=O)[O-])cc1`, the survivor count (dose: 200.0 mg/kg/injection, schedule: Q01DX001 (ip), vehicle: saline) was 6 of 6 and the survivor count [2] was 6 of 6.
`CCN(CC)P(=O)(N1CC1(C)C)N1CC1(C)C` (configuration not stated) was tested, and the T/C (dose: 300.0 mg/kg/injection, schedule: Q01DX001 (ip), vehicle: carboxymethylcellulose (CMC)) was 128 % of control and the T/C [2] was 134 % of control.
With `O=C(NCCCN1CCOCC1)C(Oc1ccccc1)Oc1ccccc1` the survivor count [1] was 6 of 6.
